Assay results: paper PMC9957047, “A Role for the Interactions between Polδ and PCNA Revealed by Analysis of pol3-01 Yeast Mutants” (Genes, 2023)
Where a chain is given by its changes, count along the chain named. Numbers in names are those of the source. No constants are given. Whether binding was seen depends on the method and setting. Binding seen in cells or lysates may run through a third protein. Some results given as binding are weak or reduced against the parent protein; the word gives no strength. Tags and fused reporters may be left off the sequences shown.

By UniProt entry, the sequences of proteins in these tests, tags left out.
UniProt P15873: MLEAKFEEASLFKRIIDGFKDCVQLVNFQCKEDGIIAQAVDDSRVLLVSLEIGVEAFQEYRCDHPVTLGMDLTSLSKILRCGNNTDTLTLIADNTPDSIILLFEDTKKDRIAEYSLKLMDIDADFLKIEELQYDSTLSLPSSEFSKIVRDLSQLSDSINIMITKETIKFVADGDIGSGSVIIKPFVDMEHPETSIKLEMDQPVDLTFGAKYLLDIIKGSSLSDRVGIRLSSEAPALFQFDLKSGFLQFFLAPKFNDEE

How the values were obtained:
[1] = target: T1, HA-tagged Pol31 (pol31-HA) (S. cerevisiae) (UniProt P46957); assay: co-IP; triply-tagged strains with POL3-MYC (wild-type POL3 background); mid-log cells; HA-tagged Pol31 immunoprecipitated with anti-HA antibodies; Western blot with anti-Myc for Pol3 and Rev3 (Figure 6A)
T1 sequence: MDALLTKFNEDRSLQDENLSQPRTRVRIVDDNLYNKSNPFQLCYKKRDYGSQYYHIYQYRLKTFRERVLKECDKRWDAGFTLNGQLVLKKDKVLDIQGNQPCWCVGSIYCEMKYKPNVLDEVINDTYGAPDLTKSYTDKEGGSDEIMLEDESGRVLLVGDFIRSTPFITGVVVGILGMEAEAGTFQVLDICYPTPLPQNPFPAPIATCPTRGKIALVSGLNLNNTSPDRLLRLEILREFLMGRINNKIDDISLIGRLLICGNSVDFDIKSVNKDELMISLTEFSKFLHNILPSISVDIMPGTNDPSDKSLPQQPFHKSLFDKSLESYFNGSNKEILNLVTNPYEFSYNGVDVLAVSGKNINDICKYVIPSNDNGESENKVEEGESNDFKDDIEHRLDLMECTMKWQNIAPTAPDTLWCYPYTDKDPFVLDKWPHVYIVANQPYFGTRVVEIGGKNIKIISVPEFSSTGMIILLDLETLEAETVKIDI

[2] = target: T2, HA-tagged Pol31-K358E (pol31-K358E-HA) (S. cerevisiae) (UniProt P46957); assay: as above
T2 sequence: T1 sequence with K358E

[3] = target: T1, HA-tagged Pol31 (pol31-HA) (S. cerevisiae); assay: co-IP; triply-tagged strains with pol3-01-MYC (pol3-01 background); mid-log cells; HA-tagged Pol31 immunoprecipitated with anti-HA antibodies; Western blot with anti-Myc for Pol3-01 and Rev3 (Figure 6A)
[4] = target: T2, HA-tagged Pol31-K358E (pol31-K358E-HA) (S. cerevisiae); assay: as above
[5] = target: FLAG-tagged PCNA (Pol30; POL30-FLAG) (S. cerevisiae) (UniProt P15873); assay: co-IP; FLAG-tagged PCNA (Pol30) immunoprecipitated with anti-FLAG antibodies from yeast extract; Western blot with anti-Myc (Figure 3A)

B1: Myc-tagged Pol3 (POL3-MYC) (protein, UniProt P15436 1-1097)
chain: MSEKRSLPMVDVKIDDEDTPQLEKKIKRQSIDHGVGSEPVSTIEIIPSDSFRKYNSQGFKAKDTDLMGTQLESTFEQELSQMEHDMADQEEHDLSSFERKKLPTDFDPSLYDISFQQIDAEQSVLNGIKDENTSTVVRFFGVTSEGHSVLCNVTGFKNYLYVPAPNSSDANDQEQINKFVHYLNETFDHAIDSIEVVSKQSIWGYSGDTKLPFWKIYVTYPHMVNKLRTAFERGHLSFNSWFSNGTTTYDNIAYTLRLMVDCGIVGMSWITLPKGKYSMIEPNNRVSSCQLEVSINYRNLIAHPAEGDWSHTAPLRIMSFDIECAGRIGVFPEPEYDPVIQIANVVSIAGAKKPFIRNVFTLNTCSPITGSMIFSHATEEEMLSNWRNFIIKVDPDVIIGYNTTNFDIPYLLNRAKALKVNDFPYFGRLKTVKQEIKESVFSSKAYGTRETKNVNIDGRLQLDLLQFIQREYKLRSYTLNAVSAHFLGEQKEDVHYSIISDLQNGDSETRRRLAVYCLKDAYLPLRLMEKLMALVNYTEMARVTGVPFSYLLARGQQIKVVSQLFRKCLEIDTVIPNMQSQASDDQYEGATVIEPIRGYYDVPIATLDFNSLYPSIMMAHNLCYTTLCNKATVERLNLKIDEDYVITPNGDYFVTTKRRRGILPIILDELISARKRAKKDLRDEKDPFKRDVLNGRQLALKISANSVYGFTGATVGKLPCLAISSSVTAYGRTMILKTKTAVQEKYCIKNGYKHDAVVVYGDTDSVMVKFGTTDLKEAMDLGTEAAKYVSTLFKHPINLEFEKAYFPYLLINKKRYAGLFWTNPDKFDKLDQKGLASVRRDSCSLVSIVMNKVLKKILIERNVDGALAFVRETINDILHNRVDISKLIISKTLAPNYTNPQPHAVLAERMKRREGVGPNVGDRVDYVIIGGNDKLYNRAEDPLFVLENNIQVDSRYYLTNQLQNPIISIVAPIIGDKQANGMFVVKSIKINTGSQKGGLMSFIKKVEACKSCKGPLRKGEGPLCSNCLARSGELYIKALYDVRDLEEKYSRLWTQCQRCAGNLHSEVLCSNKNCDIFYMRVKVKKELQEKVEQLSKW
[1]
  binding: binds
[2]
  binding: binds

B2: FLAG-tagged Pol3-01 (Pol3-01-Flag) of the co-IP of Figure 2C (natural protein, S. cerevisiae, UniProt P15436 1-1097, looked up)
chain: B1 chain with D321A, E323A
notes: Pol3, catalytic subunit of DNA polymerase delta, S. cerevisiae, pol3-01 allele (D321A, E323A); the tags may be swapped in the text; source: S. cerevisiae, in lysate
[3]
  binding: binds weakly
[4]
  binding: binds
[5]
  binding: binds weakly
